Data taken from PMC11211442.
Results are given in words; binding and its absence hold for the method and conditions named. Some entries that bind do so weakly or less than the wild type.

By UniProt entry, the sequences of proteins in these tests, tags left out.
UniProt K4LM89: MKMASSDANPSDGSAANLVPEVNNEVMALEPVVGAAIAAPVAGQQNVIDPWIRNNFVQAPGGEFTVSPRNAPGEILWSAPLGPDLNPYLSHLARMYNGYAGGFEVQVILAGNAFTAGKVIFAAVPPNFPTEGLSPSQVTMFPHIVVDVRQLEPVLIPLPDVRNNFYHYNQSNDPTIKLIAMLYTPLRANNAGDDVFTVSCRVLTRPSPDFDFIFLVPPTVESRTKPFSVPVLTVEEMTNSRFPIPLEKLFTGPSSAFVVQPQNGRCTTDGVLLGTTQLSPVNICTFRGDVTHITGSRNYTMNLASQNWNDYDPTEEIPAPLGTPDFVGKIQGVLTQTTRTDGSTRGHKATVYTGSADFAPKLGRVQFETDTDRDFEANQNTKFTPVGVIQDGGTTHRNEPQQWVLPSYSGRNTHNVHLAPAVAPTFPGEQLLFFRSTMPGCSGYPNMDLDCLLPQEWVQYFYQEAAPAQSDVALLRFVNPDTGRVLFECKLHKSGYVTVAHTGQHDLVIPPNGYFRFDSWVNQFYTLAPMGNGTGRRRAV

Molecular target: norovirus capsid protein VP1 from strain Hu/GII.4/Sydney/NSW0514/2012/AU (wild type noro-VLP) (norovirus Hu/GII.4/Sydney/NSW0514/2012/AU) (UniProt K4LM89)
Test: dynamic light scattering + transmission electron microscopy; noro-VLP assembled in High Five cells, pelleted by ultracentrifugation (175,000 g), purified by SEC (Sephacryl S-500 HR) in PBS, more than 95% pure; particles analysed by DLS and TEM; both purified

Substance: norovirus capsid protein VP1 from strain Hu/GII.4/Sydney/NSW0514/2012/AU (wild type noro-VLP) (from UniProt K4LM89 1-540)
- binding: binds
